The test system of assay [1] is adriamycin-resistant mouse leukemic cells p388/ADR. The assay is described as follows: In vitro cancer cell proliferation inhibiting test (1). Type of assay: cell-based. The conditions noted are these: 48 h, read-out: IC50 (50% proliferation inhibitory concentration), P388/ADR. Here is the method: (§1) (1) 10^6 each of mouse leukemic cells p388/S and adriamycin-resistant mouse leukemic cells p388/ADR are suspended in RPMI 1640 media each containing 10% fetal bovine serum, respectively, and cultured for 2 days in the presence of a test compound (this was used after it was dissolved in dimethylsulfoxide to 1 mg/ml and the solution was diluted with a phosphate buffer). The influence of the test compound on cell proliferation was investigated, and 50% proliferation inhibitory concentration:IC50 value (μg/ml) was determined.

For assay [2], the system named is p388/S mouse leukemic cells. Described as above. Type of assay: cell-based. As to conditions: 48 h, read-out: IC50 (50% proliferation inhibitory concentration), p388/S. As for the experimental part:
as §1

The structures appear in SMILES notation. ≈ marks a conversion by molar mass, not a printed value.

Take `COc1cc2c(c(OC)c1OC)-c1ccc(OC)c(=O)cc1[C@@H](NC(C)=O)CC2` [Colchicine, colchicine, reference compound]: the values for the IC50 in assay [1] and in assay [2] were 0.48 µg/mL (≈ 1.2 µM) and 0.0041 µg/mL (≈ 0.0103 µM), respectively.
